# The full ranking holds about 3,200 compounds; the median of “TSA(with NAD+) / Primary screening (TSA) / delta Tm (K)” is about -0.04, and the highest 2% start at about 0.37. The list shows a part of the results.
# By UniProt entry, the sequences of proteins in these tests, tags left out. Residues count along the entry.
# UniProt Q96EB6, 2-747 limits assumed: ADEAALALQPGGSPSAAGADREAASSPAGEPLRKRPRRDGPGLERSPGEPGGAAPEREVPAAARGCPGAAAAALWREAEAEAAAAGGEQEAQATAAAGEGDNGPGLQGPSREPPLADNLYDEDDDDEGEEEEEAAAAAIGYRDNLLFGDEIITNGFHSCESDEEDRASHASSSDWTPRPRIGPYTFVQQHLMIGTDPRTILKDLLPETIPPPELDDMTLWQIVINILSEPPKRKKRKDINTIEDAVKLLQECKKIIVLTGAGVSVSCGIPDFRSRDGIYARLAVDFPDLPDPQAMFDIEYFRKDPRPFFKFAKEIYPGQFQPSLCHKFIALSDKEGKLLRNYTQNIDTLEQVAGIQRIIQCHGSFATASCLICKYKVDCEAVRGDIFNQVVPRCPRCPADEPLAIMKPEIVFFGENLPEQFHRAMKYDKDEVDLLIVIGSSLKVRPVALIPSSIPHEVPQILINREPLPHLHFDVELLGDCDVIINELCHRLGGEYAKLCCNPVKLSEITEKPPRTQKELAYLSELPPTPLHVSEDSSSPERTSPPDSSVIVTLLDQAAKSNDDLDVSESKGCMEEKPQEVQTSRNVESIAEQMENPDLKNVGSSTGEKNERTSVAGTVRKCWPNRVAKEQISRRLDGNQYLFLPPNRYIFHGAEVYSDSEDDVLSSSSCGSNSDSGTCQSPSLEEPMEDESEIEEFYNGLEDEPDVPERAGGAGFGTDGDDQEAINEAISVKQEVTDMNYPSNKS
# Biological target: NAD-dependent deacetylase Sirtuin 1 (human, UniProt Q96EB6)
# Test: primary screen, delta tm
# Design: single well (n = 1, as 'the same TSA')
# Settings: 10 µM
# Method: A total of 3,192 compounds extracted from the proposed lists were first screened by thermal shift assay (TSA), which determined a melting temperature shift (ΔTm) of Sirtuin 1 upon the addition of a test compound at a concentration of 10 µM (n = 1) with primary hit criteria of ΔTm > 0.45 K or ΔTm < −1.5 K. Primary hits (48 compounds) were retested in the same assay at three concentrations (5, 10, 20 µM, n = 4) for hit confirmation and for dose-dependency check. Secondary hits (41 compounds) were checked their selectivity for Sirtuin 1 based on counterscreening on unrelated protein targets (bovine carbonic anhydrase (CA) and recombinant SH2 domain of hABL1 kinase (ABL1)) at three different concentrations (5, 10, 20 µM, n = 4), which yielded 38 hit compounds, hereafter referred to as TSA hits. The TSA screening above was conducted in the absence of NAD+. As noted, the structure of Sirtuin 1 is different in the presence of NAD+ and substrate. The chemical profile of TSA hits found from the different conditions could be different. […] As a result, 39 TSA hits were found.
row,Structure (SMILES),TSA(with NAD+) / Primary screening (TSA) / delta Tm (K)
1,CC(O)C(N)CN (centres unmarked),-0.03
2,NC(=O)C1CC(O)CN1c1ncnc2cc(-c3ccc(Br)cc3)sc12 (centres unmarked),-0.28
3,Cc1ccc(NC(=O)c2cc3c(nc4sccn43)s2)c(O)c1,0.31
4,Cc1nc(N2CCN(c3ncccc3C(N)=O)CC2)c2c3c(sc2n1)CCC3,0.02
5,O=C(Nc1ccccc1Cc1ccccc1)C12CC3CC(CC(Br)(C3)C1)C2,-0.16
6,Cc1cccc(-n2ccnc2SCC(=O)Nc2ccc(S(=O)(=O)Nc3nccs3)cc2)c1C,0.13
7,O=C(NC1CCN(C(=O)Nc2ccc([N+](=O)[O-])cc2)CC1)c1ccccn1,-0.15
8,NC1=Nc2nc3ccccc3n2C(c2ccc(-c3ccc(C(=O)O)cc3)o2)N1 (centres unmarked),1.27
9,CN/C(=N/c1ccc2ccccc2c1)c1ccccc1,-0.05
10,O=C(CCc1nc2ccccc2c(=O)[nH]1)Nc1cccc(S(=O)(=O)NCc2ccco2)c1,0.05
11,Cc1c(C)n(-c2ccc(O)cc2)c2ncnc(N)c12,-0.02
12,Cc1nc(C(=O)NC(Cc2ccccc2)C(=O)N(C)C)ccc1C#N (centres unmarked),-0.01
13,Cc1nn(C)c2nc(-c3ccccc3)cc(C(=O)N3CCN(Cc4ccccc4F)CC3)c12,-0.28
14,Cc1cc(C)n(-c2nc(C)nc3c2cnn3-c2ccccc2)n1,-0.12
15,CC1CCCN(C(=O)CSc2nncn2-c2ccccc2)C1 (centres unmarked),-0.12
16,COc1ccc(C2C(C(=O)c3cccs3)=C(O)C(=O)N2CCCN2CCOCC2)cc1OC (centres unmarked),-0.03
17,CC(=O)N1Cc2ccccc2CC1C(=O)NC1CCOc2ccccc21 (centres unmarked),-0.13
18,CC(C)(C)C(=O)Nc1cccc(NC2CCCCNC2=O)c1 (centres unmarked),0.06
19,C=CC(N)CO (centres unmarked),-0.15
20,COc1cccc(C(=O)C2=C(O)C(=O)N(CCCN3CCOCC3)C2c2cccc(F)c2)c1 (centres unmarked),0.08
21,CCCNC(=O)C(C#N)C(=O)c1cc2ccc(C)cc2nc1C (centres unmarked),-0.06
22,CC(C)C(CNC(=O)COc1ccc(C(N)=O)cc1)N1CCc2ccccc2C1 (centres unmarked),-0.01
23,C=CCOc1ccc(C(=O)C2=C(O)C(=O)N(CCN3CCOCC3)C2c2ccc(OCC)cc2)cc1 (centres unmarked),-0.03
24,O=C(CC(c1ccccc1)c1ccccc1)N1CCN(c2ccc([N+](=O)[O-])c3cnccc23)CC1,-0.06

# Molecules shown so far that contain a thiophene ring, fused or not (four):
row,Structure (SMILES),TSA(with NAD+) / Primary screening (TSA) / delta Tm (K)
2,NC(=O)C1CC(O)CN1c1ncnc2cc(-c3ccc(Br)cc3)sc12 (centres unmarked),-0.28
3,Cc1ccc(NC(=O)c2cc3c(nc4sccn43)s2)c(O)c1,0.31
4,Cc1nc(N2CCN(c3ncccc3C(N)=O)CC2)c2c3c(sc2n1)CCC3,0.02
16,COc1ccc(C2C(C(=O)c3cccs3)=C(O)C(=O)N2CCCN2CCOCC2)cc1OC (centres unmarked),-0.03

# (more compounds)

row,Structure (SMILES),TSA(with NAD+) / Primary screening (TSA) / delta Tm (K)
1,COc1ccc(Cl)cc1NC(=O)CSc1nnc(-c2ccc(Cl)cc2)n1N,0.09
2,O=C1COc2cc(C(=O)Nc3ccc4c(c3)-c3ccccc3C4)ccc2N1,0.11
3,CCCc1ccc(C(Nc2ccc3nnnn3n2)C(C)C)cc1 (centres unmarked),-0.11
4,O=C(CNC1=NS(=O)(=O)c2ccccc21)Nc1ccc(N2CCN(Cc3ccccc3)CC2)cc1,0.09
5,O=C(C1=C(O)C(=O)N(CCCN2CCOCC2)C1c1cccs1)c1cc2ccccc2o1 (centres unmarked),-0.05
6,CC1CC1C(=O)NCc1ccccc1-c1ccc(CN2CCCC2)cc1 (centres unmarked),-0.21
7,CN(c1ccccc1)S(=O)(=O)c1cccc(NC(=O)c2cccc(C#N)c2)c1,0.08
8,CC1CCc2[nH]c3ccc(C(=O)N(C)C)cc3c2C1 (centres unmarked),-0.02
9,Cc1nc(C)c(C(=O)C2=C(O)C(=O)N(CCN3CCOCC3)C2c2ccco2)s1 (centres unmarked),-0.11
10,CC1Cc2ccccc2N1c1ncnc2ccsc12 (centres unmarked),-0.09
11,Cc1[nH]c2ccccc2c1C(=O)CN1CCC(C(N)=O)CC1,-0.03
12,Cc1cc(C(=O)COC(=O)c2ccc(-c3ccc(O)cc3)cc2)c(C)n1C,-0.06
13,Oc1ccc2ccccc2c1/C=N/c1c(F)c(F)c(F)c(F)c1F,-0.23
14,N=C(N)NCCN,-0.13
15,CC1CCCC(NC(=O)COC(=O)CCCOc2ccccc2)C1C (centres unmarked),-0.13
16,NC(=O)C1CCCCC1Nc1ncnc2cc(F)c(F)cc12 (centres unmarked),0.07
17,COc1cccc(NN=C2C(=O)NC(=S)NC2=O)c1,-0.01
18,O=C(O)C(=O)Nc1ccccc1,0.25
19,O=C(CC12CC3CC(CC(C3)C1)C2)NCC(=O)Nc1ccc(Sc2nc3ccccc3[nH]2)cc1,0.23
20,Cc1ccc(C(=O)Nc2cccc(/C=c3/s/c(=C(\C#N)C(=O)NCc4ccco4)n(-c4c(C)cccc4C)c3=O)c2)cc1,-0.01
21,CN(Cc1cccc2ccccc12)c1cc(=O)n2ccccc2n1,-0.19
22,O=C(NCCc1coc(-c2ccccc2)n1)c1cc(-c2ccco2)on1,0.16
23,Cc1ccc(Nc2nnc(SCC(=O)NC(=O)NCc3ccco3)s2)cc1,-0.03
24,O=c1c2ccncc2ncn1CC(O)c1cccc(Cl)c1 (centres unmarked),-0.03

row,Structure (SMILES),TSA(with NAD+) / Primary screening (TSA) / delta Tm (K)
1,Cc1n[nH]c(=O)c2c(NC(=O)CN3CCC(O)CC3)oc(C)c12,0.06
2,Nc1nc(-c2c(-c3ccccc3)[nH]c3ccccc23)cs1,0.16
3,CC(C)(C)N(Cc1ccccc1)C(=O)Cn1nnc2ccccc2c1=O,0.01
4,CCc1ccccc1NC(=O)CNC(=O)CCc1nc2ccccc2[nH]1,-0.06
5,CCC(C)c1ccccc1NC(=O)Cc1coc2ccc3ccccc3c12 (centres unmarked),-0.09
6,O=C(Nc1ccccc1Oc1ccccc1)c1ccccc1[N+](=O)[O-],-0.15
7,COc1ccc2cccc(C=C3C(=O)NC(=S)NC3=O)c2c1,-0.26
8,Cc1c(NC=C2C(=O)NC(=S)NC2=O)c(=O)n(-c2ccccc2)n1C,0.06
9,CC(CC1CCCCCN1C(=O)OC(C)(C)C)NCc1cccc(C(N)=O)c1 (centres unmarked),0.01
10,Cn1c(-c2cccnc2)[n+](C)c2ccccc21,-0.05
11,NC(=O)c1ccc(CN2CCN(CCO)CC2)cc1,-0.18
12,CN(Cc1ccc(N(C)C)cc1)C(=O)c1cnc2ccccn2c1=O,-0.09
13,CC(c1ccccc1F)N(C)C(=O)CN(C)c1ncnc2nc[nH]c12 (centres unmarked),-0.03
14,CCCOc1cccc(C2C(C(=O)c3ccccc3)=C(O)C(=O)N2CCCN2CCOCC2)c1 (centres unmarked),-0.05
15,CCCc1cc(N2CCC(Cc3ccccc3)CC2)n2ncnc2n1,-0.01
16,COc1ccc(C(=O)C2=C(O)C(=O)N(CCN3CCOCC3)C2c2ccccn2)cc1OC (centres unmarked),-0.03
17,COc1cccc(NC(=O)CN(C)C(=O)c2ccccc2SCC(=O)NC23CC4CC(CC(C4)C2)C3)c1,-0.09
18,Nc1ncnc2c1cnn2-c1ccncc1,-0.13
19,Cc1cc(C)c(NC(=O)CN(C)C(=O)CNC(=O)C(C)(C)C)c(C)c1,0.09
20,Cn1ncc2c(N3CCN(CC(=O)Nc4ccc(Cl)cn4)CC3)ncnc21,-0.03
21,C=CCN(CCO)C(=O)Nc1cccc(I)c1,-0.11
22,CCOc1ccc(-n2c(C)cc(C(=O)COc3ccc(C(N)=O)cc3)c2C)cc1,-0.02
23,Cc1nc(C)c(CC(=O)Oc2ccccc2)c(=O)[nH]1,-0.02
24,O=C(O)c1ccc2[nH]c(CO)nc2c1,-0.16

row,Structure (SMILES),TSA(with NAD+) / Primary screening (TSA) / delta Tm (K)
1,CC(C)=CCN,-0.03
2,COc1cc(OC)cc(C(=O)NCC(=O)OCC(=O)NCC(=O)Nc2ccc(F)c(F)c2F)c1,-0.24
3,COc1cc(C(=O)Nc2cccc(S(=O)(=O)NCc3ccco3)c2)ccc1OCc1ccccc1,0.08
4,Cc1nc(S)sc1CC(=O)Nc1ccc(F)cc1,-0.04
5,CC(=O)N1CCCc2cc(S(=O)(=O)N3c4ccccc4CCC3C)ccc21 (centres unmarked),-0.05
6,O=C(O)c1nn(Cc2ccccc2)c(=O)c2ccccc12,-0.11
7,Oc1ccccc1/C=N/c1ccccc1O,-0.03
8,COc1ccc(N(C)S(=O)(=O)c2cccc(C(=O)Nc3ncc(C(N)=O)s3)c2)cc1,-0.03
9,c1ccc(CN2CCCC2)c(CNc2ncnc3sccc23)c1,-0.03
10,CCCOc1ccc(C(=O)C2=C(O)C(=O)N(CCCN3CCOCC3)C2c2cccnc2)cc1 (centres unmarked),-0.16
11,CCSCCOC(=O)c1ccc2[nH]c(C(F)F)nc2c1,-0.03
12,CCCC(=O)CN,-0.23
13,CC(C)NCCOCCN,-0.11
14,O=C1CCCN1c1cccc(NS(=O)(=O)c2ccc3nc[nH]c(=O)c3c2)c1,-0.14
15,COc1cc(C(=O)N(C)Cc2ccc(C(N)=O)cc2)cc(OC)c1OC,-0.11
16,COC(=O)CCC(NC(=O)OC(C)(C)C)C(=O)Nc1cccc(C(N)=O)c1C (centres unmarked),-0.05
17,CC(CN)CN(C)C (centres unmarked),-0.13
18,CCc1ccc(NC(c2cccnc2)c2ncc[nH]2)cc1CC (centres unmarked),-0.11
19,NC(=O)C1CCN(c2nc(-c3cccs3)nc3sc4c(c23)CCCC4)CC1,2.33
20,O=C(O)c1cc(/N=C/c2c(O)ccc3ccccc23)ccc1O,-0.01
21,NC(=O)c1cc(NC(=O)c2ccc(-c3ccccc3Cl)o2)ccc1Cl,-0.04
22,CCCCCc1nnc(NC(=O)c2cccc(S(=O)(=O)N(C)c3ccc(OC)cc3)c2)s1,0.35
23,COC(=O)c1ccc(C2C(C(=O)c3cccc(OC)c3)=C(O)C(=O)N2CCCN2CCOCC2)cc1 (centres unmarked),0.15

# Reference: PMC6925144, “A prospective compound screening contest identified broader inhibitors for Sirtuin 1” (Scientific Reports, 2019)
